In patent US5387610A, “Peptide derivatives of collagenase inhibitor” (Research Corporation Technologies, Inc., priority 1992, dated 1995):
At least one structure is not confirmed: it was looked up by name or label, or the drawing left a doubt.

Target: T1, Porcine synovial collagenase (Sus scrofa, UniProt P21692)
T1 construct: purified porcine synovial collagenase; from tissue; host or cells: pig synovium (synovial enzyme, purified)
T1 sequence (P21692 100-469): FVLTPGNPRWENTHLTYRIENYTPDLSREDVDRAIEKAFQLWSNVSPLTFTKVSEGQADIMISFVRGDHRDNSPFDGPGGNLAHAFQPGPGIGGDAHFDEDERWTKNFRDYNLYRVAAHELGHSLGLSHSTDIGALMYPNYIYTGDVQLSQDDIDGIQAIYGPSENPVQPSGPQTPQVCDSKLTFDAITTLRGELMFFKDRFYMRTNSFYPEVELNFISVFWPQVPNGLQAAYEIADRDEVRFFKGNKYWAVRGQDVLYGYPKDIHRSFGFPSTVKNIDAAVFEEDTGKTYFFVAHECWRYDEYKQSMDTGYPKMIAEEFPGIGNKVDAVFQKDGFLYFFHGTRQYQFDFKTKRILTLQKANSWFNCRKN
Test: Porcine synovial collagenase activity with type I (calf skin) collagen, gel densitometry (PSC/CSC)
Type: biochemical
Settings: acid-soluble calf skin collagen 0.8 μM, 35° C., pH 7.7; a range means 50% inhibition lay between the values; successive lines per compound = diastereomers, higher C18 mobility first
Procedure: Porcine synovial collagenase activity (PSC) was measured with type I collagen essentially as described by Darlak et al. (1990). Varying amounts of inhibitor were added to the acid-soluble calf skin collagen (0.8 μM) at 35° C. in 0.05M tris-HCl, 0.2M NaCl, 5 mM CaCl2, 0.25M glucose, pH 7.7. Collagen degradation was initiated by adding purified porcine synovial collagenase and the reactions were stopped by the addition of an equal volume of sample dilution buffer (Laemmli, 1970) followed by boiling for 2-3 min. Undegraded collagen was resolved from its degradation products by polyacrylamide slab gel electrophoresis as described by Laemmli (1970). The gels were fixed in isopropanol/acetic acid/water (100:40:300 v/v) and then stained with 1% Coomassie Blue R-250 in fixing solution. After destaining, the percentage of α1 chain converted to the corresponding TC fragment was estimated by densitometry using a Bio-Rad model 610 video densitometer. IC50 values were estimated from the dependence of the percent of collagen degraded on inhibitor concentration.

Compound | IC50 [µM]
CC(C)CC(C(=O)NO)C(=O)N[C@@H](Cc1ccccc1)C(=O)N[C@@H](C)C(N)=O (mixture of isomers) [Compound 3, H4[ONHCO]--DL--Leu Phe Ala--NH2] | 60
CC(C)CC(C(=O)NO)C(=O)N[C@@H](Cc1c[nH]c2ccccc12)C(=O)N[C@@H](C)C(N)=O (mixture of isomers) [Compound 4, H4[ONHCO]--DL--Leu Trp Ala--NH2] | 60
